± gives the uncertainty stated by the source. Many of these values have a large error.
Assay: self-splicing fitness, log relative to wild type (ln ratio); higher = more splicing; Tetrahymena group I intron in knt gene, E. coli kanamycin selection, DiMSum; sequences stand for … in CUCUCU…GGAGGGAAAAGUUAUCAGGCAUGCACCUGGUAGCUAGUCUUUAAACCAAUAGAUUGCAUCGGUUUAAAAGGCAAGACCGUCAAAUUGCGGGAAAGGGGUCAACAGCCGUUCAGUACCAAGUCUCAGGGGAAACUUUGAGAUGGCCUUGCAAAGGGUAUGGUAAUAAGCUGACGGACAUGGUCCUAACCACGCAGCCAAGUCCUAAGUCAACAGAUCUUCUGUUGAUAUGGAUGCAGUUCACAGACUAAAUGUCGGUCGGGGAAGAUGUAUUCUUCUCAUAAGAUAUAGUCGGACCUCUCCUUAAUGGGAGCUAGCGGAUGAAGUGAUGCAACACUGGAGCCGCUGGGAACUAAUUUGUAUGCGAAAGUAUAUUGAUUAGUUUUGGAGUACUCGUGGUCG
Method in brief: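 DiMSum derived fitness as the error-weighted combination of fold changes across replicates, kanamycin versus no kanamycin, normalised to wild type. E. coli BL21(DE3) held the library, which randomised all eight P1ex-region intron nucleotides within the knt kanamycin-resistance gene on pET-22b(+). Six replicate transformations grew overnight at 37°C or 30°C on LB agar with or without 25 μg/mL kanamycin, also containing 100 μg/mL carbenicillin, 50 μM IPTG and 0.2% rhamnose, and pooled colonies were amplicon-sequenced on an Illumina HiSeq 2500.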

Sequence | self-splicing fitness (ln) (30 °C) | self-splicing fitness (ln) (37 °C)
ACACAGCAAUAUUACGCAGA | -2.48 ± 0.16 | -1.75 ± 0.12
CGUGAGCAAUAUUACGUGAA | -4.98 ± 0.71 | –
CGGGAGCAAUAUUACGGUGA | – | -1.92 ± 0.56
AGUUAGCAAUAUUACGCAAA | -3.12 ± 0.52 | –
GCGAAGCAAUAUUACGCUGC | -3.42 ± 1 | -2.74 ± 1.1
GUUGAGCAAUAUUACGGGAG | -4.25 ± 0.59 | –
CUGGAGCAAUAUUACGGUUA | -1.79 ± 0.26 | -2.31 ± 0.26
ACGGAGCAAUAUUACGUACG | – | -1.1 ± 0.73
GGCCAGCAAUAUUACGCUUG | -4.13 ± 0.26 | -2.58 ± 0.2
GUGGAGCAAUAUUACGAUCC | -2.49 ± 0.2 | -1.13 ± 0.28
AACCAGCAAUAUUACGCGGA | -2.05 ± 0.093 | -0.49 ± 0.072
GAAGAGCAAUAUUACGGGCC | – | -2.03 ± 0.56
UUCUAGCAAUAUUACGAGCC | -3.14 ± 0.61 | -2.28 ± 0.56
GGGCAGCAAUAUUACGUCCG | -0.61 ± 0.091 | -0.058 ± 0.14
CAUAAGCAAUAUUACGACCC | -1.28 ± 0.63 | -1.32 ± 0.57
CCGUAGCAAUAUUACGACGC | -4.24 ± 0.6 | –
GGGUAGCAAUAUUACGUUCC | -3 ± 0.55 | –
CUACAGCAAUAUUACGUUCC | – | -3.57 ± 0.59
ACAGAGCAAUAUUACGAGAA | – | -1.76 ± 0.83
UGAGAGCAAUAUUACGGGAC | – | -1 ± 0.92
CUGGAGCAAUAUUACGGCAU | – | -1.73 ± 0.59
UGGGAGCAAUAUUACGCCGG | -2.45 ± 0.23 | -2.19 ± 0.31
ACAUAGCAAUAUUACGCAUA | -3.01 ± 0.17 | -1.85 ± 0.12
AUGGAGCAAUAUUACGAUCC | – | -1.33 ± 1.2

Sequence | self-splicing fitness (ln) (30 °C) | self-splicing fitness (ln) (37 °C)
CCAAAGCAAUAUUACGGAAC | -4.57 ± 0.59 | –
CGUAAGCAAUAUUACGAGGA | -3.34 ± 1.1 | –
CGUUAGCAAUAUUACGCGCG | -1.97 ± 1.2 | -1.09 ± 0.92
AAUGAGCAAUAUUACGAAUC | -4.61 ± 0.72 | –
UCAGAGCAAUAUUACGAAUU | -3.03 ± 0.54 | –
UUUAAGCAAUAUUACGACUC | -0.391 ± 0.24 | -0.881 ± 0.4
AAGUAGCAAUAUUACGCCGC | – | -2.62 ± 0.54
ACGAAGCAAUAUUACGAUUC | -4.44 ± 0.51 | –
GGUAAGCAAUAUUACGGCCU | – | -2.25 ± 0.55
GGGAAGCAAUAUUACGGGAU | -1.34 ± 0.73 | –
CCGGAGCAAUAUUACGCUAG | -3.07 ± 0.21 | -2.33 ± 0.26
UGGUAGCAAUAUUACGUGUC | – | -2.36 ± 0.64
UAUGAGCAAUAUUACGUAUC | -3.96 ± 0.73 | -1.29 ± 0.71
GCUGAGCAAUAUUACGCCGC | – | -2.56 ± 0.75
GUAGAGCAAUAUUACGAGAG | -3.5 ± 0.73 | –
UGUGAGCAAUAUUACGAUCU | -1.57 ± 0.15 | -0.175 ± 0.14
CACCAGCAAUAUUACGGCUG | -3.78 ± 0.13 | -1.29 ± 0.083
GUUUAGCAAUAUUACGAGUA | -3.19 ± 0.53 | -3.24 ± 0.6
GGUAAGCAAUAUUACGACAG | -2.56 ± 0.29 | -1.99 ± 0.44
AGAUAGCAAUAUUACGAGCG | -0.464 ± 0.12 | -1.08 ± 0.15
CUUUAGCAAUAUUACGCAUA | – | -2.97 ± 0.53
CCGCAGCAAUAUUACGAACA | – | -3.02 ± 0.6
GGUUAGCAAUAUUACGAGGU | -2.84 ± 0.6 | –
CAAUAGCAAUAUUACGUUCU | – | -3.68 ± 0.73

Sequence | self-splicing fitness (ln) (30 °C) | self-splicing fitness (ln) (37 °C)
CUCAAGCAAUAUUACGAGGG | -4.86 ± 0.51 | –
UGGGAGCAAUAUUACGCGCC | -1.93 ± 1.2 | -1.13 ± 1.2
AGUGAGCAAUAUUACGACGA | -2.44 ± 0.21 | -1.13 ± 0.24
AUGGAGCAAUAUUACGCUAG | -4.57 ± 0.51 | –
ACUGAGCAAUAUUACGACUA | -2.58 ± 0.65 | -1.73 ± 0.61
UGAGAGCAAUAUUACGAGAU | -2.99 ± 0.66 | -1.53 ± 0.69
GGGUAGCAAUAUUACGCGCU | -3.35 ± 1 | -0.116 ± 0.59
CAGUAGCAAUAUUACGGAGC | -3.53 ± 0.54 | –
GAGGAGCAAUAUUACGCAUC | -1.32 ± 0.71 | –
UUGGAGCAAUAUUACGUCGU | – | -1.99 ± 0.5
CGAGAGCAAUAUUACGCCGC | – | -2.57 ± 0.54
CCCGAGCAAUAUUACGCUUU | -4.16 ± 0.72 | –
CUGGAGCAAUAUUACGUCCA | -1.62 ± 0.53 | –
AGAGAGCAAUAUUACGGUGA | – | -1.69 ± 0.81
GCAGAGCAAUAUUACGCUUU | -4.4 ± 0.52 | -3.01 ± 0.27
UCUUAGCAAUAUUACGGUAG | -4.12 ± 1 | –
UUCAAGCAAUAUUACGGGCC | -4.73 ± 0.59 | –
GCUUAGCAAUAUUACGUUCU | -1.03 ± 0.095 | 0.0827 ± 0.1
AGCCAGCAAUAUUACGCGUG | -1.91 ± 0.089 | -1.35 ± 0.092
CGCGAGCAAUAUUACGAGGC | -4.16 ± 1 | -2.47 ± 0.55
CACUAGCAAUAUUACGGGGC | -3.4 ± 0.17 | -2.23 ± 0.14
GUGGAGCAAUAUUACGAAGA | -3.59 ± 0.6 | –
CUAGAGCAAUAUUACGCUCA | -3.82 ± 1 | -1.39 ± 0.62
ACGCAGCAAUAUUACGUGCU | -3.65 ± 0.18 | -2.9 ± 0.19

Another view of part of the listing above:

| Sequence | self-splicing fitness (ln) (30 °C) | self-splicing fitness (ln) (37 °C) |
| --- | --- | --- |
| UGAGAGCAAUAUUACGAGAU | -2.99 ± 0.66 | -1.53 ± 0.69 |
| AGAGAGCAAUAUUACGGUGA | – | -1.69 ± 0.81 |
| AGCCAGCAAUAUUACGCGUG | -1.91 ± 0.089 | -1.35 ± 0.092 |
| ACGCAGCAAUAUUACGUGCU | -3.65 ± 0.18 | -2.9 ± 0.19 |

Continued:

Sequence | self-splicing fitness (ln) (30 °C) | self-splicing fitness (ln) (37 °C)
UCUUAGCAAUAUUACGGCCA | – | -2.51 ± 0.77
UGUCAGCAAUAUUACGCUCG | -0.552 ± 0.16 | 0.987 ± 0.32
AGCAAGCAAUAUUACGGGGA | -2.7 ± 0.14 | -2.1 ± 0.14
UGUCAGCAAUAUUACGACUU | -1.14 ± 0.1 | 0.303 ± 0.16
GUAGAGCAAUAUUACGCACU | -1.24 ± 0.25 | 0.332 ± 0.23
UGAGAGCAAUAUUACGAAUA | – | -2.08 ± 0.79
UCCAAGCAAUAUUACGGUGA | -0.389 ± 0.054 | 0.493 ± 0.077
UAAUAGCAAUAUUACGAUAC | – | -2.7 ± 0.53
CGAUAGCAAUAUUACGAGAC | – | -3.33 ± 1
AAGGAGCAAUAUUACGACAC | – | -0.132 ± 0.93
UAGCAGCAAUAUUACGAAAC | -2.06 ± 0.66 | –
UUGAAGCAAUAUUACGAUAA | -0.132 ± 0.23 | 0.686 ± 0.36
CAAUAGCAAUAUUACGCCCU | -2.02 ± 1.2 | -1.62 ± 0.6
CCUUAGCAAUAUUACGUACC | – | -2.08 ± 1.1
UGUGAGCAAUAUUACGAAGA | – | -2.97 ± 0.54
GUAUAGCAAUAUUACGAGCC | -2.29 ± 0.56 | -0.693 ± 1.4
GUGGAGCAAUAUUACGCUCC | – | -1.29 ± 1.2
ACAGAGCAAUAUUACGCAAC | -2.5 ± 0.63 | –
CGGUAGCAAUAUUACGAGGC | -3.13 ± 0.74 | –
UGCAAGCAAUAUUACGAUCU | -0.477 ± 0.091 | -0.822 ± 0.1
AGUCAGCAAUAUUACGGCGC | -0.611 ± 0.13 | -0.0744 ± 0.18
UCAAAGCAAUAUUACGCAUU | -3.2 ± 0.4 | -3.34 ± 0.37
CCCGAGCAAUAUUACGACGC | – | -3.02 ± 0.61
ACUGAGCAAUAUUACGUCUA | -3.82 ± 0.61 | –

Sequence | self-splicing fitness (ln) (30 °C) | self-splicing fitness (ln) (37 °C)
AUCGAGCAAUAUUACGUACC | -3.76 ± 0.35 | -1.53 ± 0.34
UCCCAGCAAUAUUACGACAG | -4.66 ± 0.51 | –
AGUAAGCAAUAUUACGAAAC | -3.94 ± 0.36 | -2.65 ± 0.53
UCUUAGCAAUAUUACGCACC | -2.09 ± 1.4 | –
UUUUAGCAAUAUUACGUCCC | -3.18 ± 0.62 | –
UUGGAGCAAUAUUACGUCUU | -3.05 ± 0.61 | –
GCGGAGCAAUAUUACGAACU | -2.65 ± 1.1 | –
GGUUAGCAAUAUUACGUCCC | -3.06 ± 1.1 | –
UAGGAGCAAUAUUACGACUC | – | -0.778 ± 1.4
CAAUAGCAAUAUUACGCCCA | – | -1.34 ± 0.54
CAAGAGCAAUAUUACGGAUA | -2.87 ± 0.23 | -2.32 ± 0.29
GGGGAGCAAUAUUACGCAUG | -4.17 ± 1.1 | -3.38 ± 0.73
AUGUAGCAAUAUUACGAUUG | -1.21 ± 0.15 | -3.05 ± 0.38
UCAUAGCAAUAUUACGAAGC | -2.83 ± 0.54 | -4.01 ± 0.59
CGUCAGCAAUAUUACGAGUC | -4.14 ± 0.59 | –
CUACAGCAAUAUUACGACAC | -3.63 ± 0.6 | -1.91 ± 0.56
CGGAAGCAAUAUUACGGACC | – | 1.71 ± 0.74
AUUCAGCAAUAUUACGCCCG | – | 0.627 ± 0.59
CUUAAGCAAUAUUACGAAUC | – | -2.92 ± 0.75
UUAUAGCAAUAUUACGGAGU | -3.38 ± 0.32 | -2.15 ± 0.3
GUUGAGCAAUAUUACGAGGA | – | -2.05 ± 0.57

Source: the supplement of paper PMC7877785
